PubChem BioAssay AID686937 | Drosophila RNAi Screening Center, 2013
The screen tested about 23,000 reagents; this is a random part of those with a known target gene and a result. 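Reduced-secretion tags in replicate 1 do not always agree with the z-scores; no criterion for assigning the tags was given.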 Reagents against one gene are numbered here. A plus sign joins genes that one reagent is predicted to hit. Further read-outs or replicates are left out here. Not given: the amount of reagent.

Assay: 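Knock-downs that reduce output of a secreted reporter enzyme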 (primary screen)
Cell system: Drosophila S2 cells expressing secreted horseradish peroxidase
Reagents: long dsRNA against Drosophila genes
Timing: about 5.5 days (5 days dsRNA, then 12 h reporter induction)
Challenge: reporter expression induced after 5 days of dsRNA, read 12 h later; inducer not stated
Detection: 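Chemiluminescent measurement of peroxidase in the medium 12 h after reporter induction, following 5 days of dsRNA, given as a z-score per plate; higher means more secretion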
Scale: z-score: higher = more reporter secreted into medium

Roc1b + Cdc5 → z-score, replicate 1 = -0.8
SF2 → z-score, replicate 1 = 0.46
CG31010 → z-score, replicate 1 = 0.59
Rexo5 → z-score, replicate 1 = -0.17
nvy → z-score, replicate 1 = 0.26
pyd3 #1 → z-score, replicate 1 = 0.43
pyd3 #2 → z-score, replicate 1 = -0.8
OSCP1 → z-score, replicate 1 = 0.34
CG8321 → z-score, replicate 1 = 0.28
wupA #1 → z-score, replicate 1 = 0.55
wupA #2 → z-score, replicate 1 = -0.13
CG16868 → z-score, replicate 1 = 0.04
Es2 → z-score, replicate 1 = 0.36
CG4558 → z-score, replicate 1 = 0.31
Vm26Aa → z-score, replicate 1 = -0.17
Elba1 → z-score, replicate 1 = -0.26
U2af38 → z-score, replicate 1 = -0.64
TTLL4A → z-score, replicate 1 = 0.22
Tgt → z-score, replicate 1 = 0.41
Sgt → z-score, replicate 1 = 0.68
mRpS23 → z-score, replicate 1 = -0.65
Ctr1A → z-score, replicate 1 = -0.35
CG15719 → z-score, replicate 1 = 0.2
dan → z-score, replicate 1 = 0.26
Fign → z-score, replicate 1 = 0.58
CG2747 → z-score, replicate 1 = 0.19
Rnp4F → z-score, replicate 1 = 0.26
SdhD → z-score, replicate 1 = 0.59
ths → z-score, replicate 1 = -1.89; phenotype, replicate 1 = reduced secretion
Gr39a #1 → z-score, replicate 1 = 0.06
Gr39a #2 → z-score, replicate 1 = 0
Tango1 → z-score, replicate 1 = -1.62; phenotype, replicate 1 = reduced secretion
ago → z-score, replicate 1 = -0.01
CG5592 → z-score, replicate 1 = 0.51
CG14591 → z-score, replicate 1 = 0.35
CG4053 → z-score, replicate 1 = 0.56
Capr → z-score, replicate 1 = 0.24
CG13084 → z-score, replicate 1 = -0.01
CG13148 → z-score, replicate 1 = -0.5
yrt → z-score, replicate 1 = 0.3

Limited to “z-score, replicate 1” (4 entries from above):
CG14591 = 0.35
CG4053 = 0.56
Capr = 0.24
CG13084 = -0.01
